# Results reported in PubChem BioAssay AID504834 (National Center for Advancing Translational Sciences (NCATS), 2011).
# Among all 320,000 compounds or so, about 22,000 (6.9%) were called active. This list was built around the results that the source calls inconclusive (neither active nor inactive); the mix of calls is not that of the screen. Calls follow the shape of the dose curve; as a rule, active = well fitted inhibition curve with a large enough effect; inconclusive = small, poorly fitted or top-dose-only effect, or another doubt; inactive = no such curve, though single readings can be large or run the other way. Where the call is inconclusive, the potency comes from a doubtful curve fit.
# Test: Primary qHTS for delayed death inhibitors of the malarial parasite plastid, 96 hour incubation
# Conditions: P. falciparum luciferase reporter growth; series mostly up to 28.7 µM
# Summary of the method: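 Parasite growth measured via integrated firefly luciferase reporter in P. falciparum. Infected erythrocytes at 2% hematocrit, 0.05% parasitemia final were treated 96 hours at 37 C under 5% CO2, and luminescence was read.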
# Potency is read from the fitted curve at half-maximal effect.
row,Compound,Potency
1,COC(c1ccccc1)(c1ccccc1)C(Oc1nc(C)cc(C)n1)C(=O)O (configuration not stated),"inconclusive: 1.65 µM [inhibitor, partial curve, poor fit]"
2,COc1cc(Cl)c(C)cc1NC(=O)COc1cc(C)nc(C(C)C)n1,"inconclusive: 11.7 µM [inhibitor, partial curve]"
3,COc1ccc(Cl)cc1NC(=O)CN(C)C(=O)c1cc2ccccc2cc1OC,"inconclusive: 9.28 µM [inhibitor, single point]"
4,COc1cccc(NC(=S)NCc2ccccn2)c1,inactive
5,COc1ccc(OCCOc2ccc(S(=O)(=O)N3CCCC3)cc2[N+](=O)[O-])cc1,"inconclusive: 6.57 µM [inhibitor, partial curve, poor fit]"
6,Cc1ccc(NC(=O)CCC(=O)Nc2nnc(C3CCCCC3)s2)cc1,inactive
7,CC(C)NC(=O)c1ccc2c(=O)n(Cc3ccco3)c(=S)[nH]c2c1,"inconclusive: 0.0131 µM [inhibitor, full curve, poor fit]"
8,O=C(CC(c1ccco1)C1CCCCC1=O)c1ccco1 (configuration not stated),"inconclusive: 0.0657 µM [inhibitor, full curve, poor fit]"
9,Clc1ccc2nc(N3CCCCC3)[nH]c2c1,inactive
10,CSc1cccc(NC(=O)N2CCCC(CNS(=O)(=O)Cc3ccccc3)C2)c1 (configuration not stated),active: 9.28 µM
11,CC(C)[C@H](NC(=O)NC1CCCc2ccccc21)C(=O)O (some centres not stated),"inconclusive: 0.522 µM [inhibitor, full curve]"
12,CN(C(=O)COC(=O)CNC(=O)c1cccs1)c1c(N)n(Cc2ccccc2)c(=O)[nH]c1=O,"inconclusive: 2.94 µM [inhibitor, single point]"
13,CCCn1c(SC(C(=O)Nc2cc(C)ccc2OC)c2ccccc2)nc2ccccc2c1=O (configuration not stated),"inconclusive: 11.7 µM [inhibitor, single point]"
14,O=C(NC1CCCc2ccccc21)C1CCN(c2nnc(-n3cccc3)s2)CC1 (configuration not stated),"inconclusive: 7.38 µM [inhibitor, partial curve, poor fit]"
15,Cc1cc(/C=C2\SC(=S)NC2=O)cc(C)c1O,inactive
16,Cc1cc(NC(=O)C2CC(=O)N(c3ccc(Cl)cc3)C2)no1 (configuration not stated),inactive
17,CCCCC(=O)NC(=S)Nc1ccc(Cl)c(C(=O)O)c1,inactive
18,Cc1cc(C(=O)Nc2cccc3ccccc23)n(-c2ccccc2)n1,active: 3.29 µM
19,O=C(Nc1nnc(Cc2ccccc2)s1)c1ccccc1,"inconclusive: 16.5 µM [inhibitor, single point]"
20,CNC(=O)/C(C#N)=C/c1c(N2CCCCCC2)nc2c(C)cccn2c1=O,"inconclusive: 3.7 µM [inhibitor, partial curve]"
21,C/C(=N\NC(=O)COc1ccccc1)c1ccc(O)cc1,inactive
22,Cn1c(-c2ccccc2)cnc1NCc1cc2c(cc1[N+](=O)[O-])OCO2,"inconclusive: 11.7 µM [inhibitor, single point]"
23,CCCCC(=O)NS(=O)(=O)c1ccc(NS(C)(=O)=O)cc1,inactive
24,O=C(NCc1ccc(F)cc1)C(c1ccccc1)c1ccccc1,"inconclusive: 18.5 µM [inhibitor, single point]"

row,Compound,Potency
1,CCOc1ccc(NC(=O)C2C3CCC4C(CCC32)C4(Cl)Cl)cc1 (configuration not stated),"inconclusive: 1.85 µM [inhibitor, full curve]"
2,CCCN(C(=O)c1cc(-c2ccco2)nc2ccccc12)c1c(N)n(Cc2ccccc2)c(=O)[nH]c1=O,"inconclusive: 14.7 µM [inhibitor, partial curve, poor fit]"
3,CCOC(=O)c1ccc(NC(=O)CCC2COc3ccccc3O2)cc1 (configuration not stated),"inconclusive: 0.415 µM [inhibitor, partial curve, poor fit]"
4,CC(C)(C)NC(=S)NC1CC1,inactive
5,Cn1c(C(=O)NCc2ccccn2)cc2c(=O)n3ccccc3nc21,"inconclusive: 18.5 µM [inhibitor, single point]"
6,CCC(C)c1ccc(O)c(N)c1 (configuration not stated),"inconclusive: 18.5 µM [inhibitor, single point]"
7,COC(=O)C1=C(C)N(c2ccc(C)c(C)c2)/C(=C/c2ccc(O)cc2)C1=O,inactive
8,COC(=O)c1ccc(COc2cccc3c2CCN(Cc2ccccc2)C3=O)o1,"inconclusive: 14.7 µM [inhibitor, single point]"
9,CSc1ccc(/C=N/n2c(C3CCCCC3)n[nH]c2=S)cc1,"inconclusive: 0.0037 µM [inhibitor, full curve, poor fit]"
10,CCN(CC)C(=O)C1CCCN(Cc2ccccc2)C1 (configuration not stated),inactive
11,CC(Nc1n[nH]c(=O)[nH]c1=O)C(=O)N/N=C/c1cccs1 (configuration not stated),inactive
12,Cc1nn(-c2ccc(C(F)(F)F)cn2)c(C)c1Oc1ccccc1O,active: 8.28 µM
13,CCOC(=O)N1CCN(Cc2nc3cc(NC(=O)c4cccs4)ccc3n2C)CC1,inactive
14,CCOC(=O)CCC(NC(=O)c1ccc(NCN2C(=O)c3ccccc3C2=O)cc1)C(=O)OCC (configuration not stated),active: 4.15 µM
15,CC1CCN(CCOc2ccc(Cl)c(Cl)c2)CC1,inactive
16,O=C(Nc1c(C(=O)O)oc2ccc(Br)cc12)c1ccccc1,"inconclusive: 2.33 µM [inhibitor, partial curve, poor fit]"
17,O=c1c(Cl)c(NCc2ccccc2)cnn1C12CC3CC(CC(C3)C1)C2,active: 10.4 µM
18,CC1C(=O)Nc2ccc(S(=O)(=O)Nc3ccccc3Br)cc2NC1=O (configuration not stated),"inconclusive: 4.65 µM [inhibitor, partial curve]"
19,O=C(NNC(=O)c1csc(N2CCOCC2)n1)c1ccc(Cl)nc1,"inconclusive: 20.8 µM [inhibitor, single point]"
20,O=C(/C=N/O)NCCCN1CCCCCC1,"inconclusive: 18.5 µM [inhibitor, single point]"
21,O=C(NCCCl)Nc1ccc(Cl)c([N+](=O)[O-])c1,"inconclusive: 0.738 µM [inhibitor, full curve, poor fit]"
22,CCCCCC(=O)Nc1ccc(C2C(=O)c3ccccc3C2=O)cc1,"inconclusive: 18.5 µM [inhibitor, single point]"
23,COc1cccc(CNC(=O)CCSCc2ccccc2F)c1,"inconclusive: 0.0928 µM [inhibitor, full curve, poor fit]"
24,O=S(=O)(c1ccccc1)c1ncc(C(F)(F)F)cc1Cl,"inconclusive: 7.38 µM [inhibitor, partial curve, poor fit]"

# 4 successive compounds out of the list so far, for reference:
row,Compound,Potency
21,O=C(NCCCl)Nc1ccc(Cl)c([N+](=O)[O-])c1,"inconclusive: 0.738 µM [inhibitor, full curve, poor fit]"
22,CCCCCC(=O)Nc1ccc(C2C(=O)c3ccccc3C2=O)cc1,"inconclusive: 18.5 µM [inhibitor, single point]"
23,COc1cccc(CNC(=O)CCSCc2ccccc2F)c1,"inconclusive: 0.0928 µM [inhibitor, full curve, poor fit]"
24,O=S(=O)(c1ccccc1)c1ncc(C(F)(F)F)cc1Cl,"inconclusive: 7.38 µM [inhibitor, partial curve, poor fit]"

# Next entries follow.

row,Compound,Potency
1,Cc1ccccc1NC(=O)C1CCCN(c2ncnc3onc(-c4ccc(F)cc4)c23)C1 (configuration not stated),inactive
2,O=C(Nc1ccccc1)c1ccco1,"inconclusive: 13.1 µM [inhibitor, single point]"
3,COc1ccccc1NC(=O)C(C)n1cnc2c(oc3nc4c(cc32)CCCC4)c1=O (configuration not stated),"inconclusive: 13.1 µM [inhibitor, single point]"
4,O=S(=O)(c1ccc(Br)cc1)c1nc(-c2ccco2)oc1NCCCn1ccnc1,"inconclusive: 4.65 µM [inhibitor, partial curve]"
5,Cc1ccc(NC(=O)C2CCN(S(=O)(=O)c3cccs3)CC2)c(O)c1,"inconclusive: 9.28 µM [inhibitor, partial curve, poor fit]"
6,Cc1cc(OCC(=O)Nc2ccccc2N2CCCCC2)ccc1C(C)C,active: 10.4 µM
7,O=C(/C=C/c1cccs1)N1CCN(c2ccc(F)cc2)CC1,"inconclusive: 14.7 µM [inhibitor, partial curve, poor fit]"
8,COc1ccc(C2CC(c3ccccc3)=NN2c2ccc(Cl)c(C(=O)O)c2)cc1 (configuration not stated),"inconclusive: 0.0828 µM [inhibitor, full curve, poor fit]"
9,O=C(c1cc2ccccc2oc1=O)N(Cc1ccco1)C1CCS(=O)(=O)C1 (configuration not stated),inactive
10,CC(=O)NC(=S)Nc1ccc(NC(=O)COc2ccc(Cl)cc2)cc1,"inconclusive: 16.5 µM [inhibitor, single point]"
11,CCOc1ccc(-n2c(-c3ccccc3)nnc2-c2ccccc2)cc1,"inconclusive: 0.104 µM [inhibitor, full curve, poor fit]"
12,COc1ccc(N(C(=O)c2ccco2)S(=O)(=O)c2cc(Cl)c(Cl)cc2Cl)cc1,inactive
13,CCC1(C(=O)OC)CCc2c(cc(OC)c3ccccc23)C1=O (configuration not stated),"inconclusive: 4.15 µM [inhibitor, partial curve]"
14,COc1ccc(S(=O)(=O)N(C)CC(=O)Nc2ccc(C(F)(F)F)cc2)cc1Cl,"inconclusive: 18.5 µM [inhibitor, single point]"
15,COc1ccc(OC)c(CNc2ccc([N+](=O)[O-])cc2C)c1,inactive
16,CCOc1ccccc1CNC(=O)C1CCCN(c2nc3ccccc3o2)C1 (configuration not stated),active: 3.7 µM
17,COc1cccc(CSc2nnc(-c3ccncc3)n2N)c1,inactive
18,COc1ccc(C2=NOC(Cn3nc(-c4ccccc4)cc3C(=O)O)C2)cc1 (configuration not stated),inactive
19,CCOCCCN1CC(=O)N2[C@@H](Cc3c([nH]c4ccccc34)C2(C)C)C1=O,inactive
20,Cn1c(=O)[nH]c(=O)c2c1nc(NCc1ccccc1)n2CCCc1ccccc1,"inconclusive: 13.1 µM [inhibitor, single point]"
21,COc1ccc(NC(=O)CN2C(=O)S/C(=C/c3cccn3-c3ccc(C(=O)O)cc3)C2=O)cc1,"inconclusive: 18.5 µM [inhibitor, single point]"
22,COc1ccc(N(CC(O)Cn2c3ccccc3c3ccccc32)S(=O)(=O)c2ccccc2)cc1 (configuration not stated),active: 10.4 µM
23,O=c1oc2c(CN3CCOCC3)c(O)ccc2c2c1CCC2,"inconclusive: 10.4 µM [inhibitor, partial curve]"
24,O=C(CCn1c(=O)oc2ccc(Cl)cc21)NCCCN1CCOCC1,"inconclusive: 18.5 µM [inhibitor, single point]"
